Assay results reported in patent US7563621B2, “Absorbing organic reagents into diagnostic test devices by formation of amine salt complexes” (Siemens Healhcare Diagnostics Inc, priority 2003, dated 2009).

System: Lambda Light Chain
Assay: Automated protein assay with pyrogallol red salts, 54 μM (Example 5)
Conditions: 10 minutes, 37° C, replicates #1 and #2; for 600 nm Absorbance Level, salt with Protein / 900 nm Absorbance Background Level, salt with Protein: Lambda Light Chain 25 mg/dL; for 600 nm Absorbance Level, salt in Phosphate Buffered Saline (No Protein) / 900 nm Absorbance Background Level, salt in Phosphate Buffered Saline (No Protein): Lambda Light Chain row
Protocol: The dilutor was programmed for reactions of 180 μL reagent+40 μL sample. […] The samples were phosphate buffered saline (blank), human serum albumin (HSA) 25 mg/dL, and other proteins (i.e., human IgG, […], and Lambda Light Chain) at 25 mg/dL. Absorbance rate data were collected on a Biotek, Powerwave X Microplate Absorbance reader using BioTek “KC Jr” software to determine the relative detection of the different proteins (i.e., HSA, human IgG, […], and Lambda Light Chain) using salts of pyrogallol red. Two sets of replicates of the different proteins were run. […] The protein response was determined by subtracting the phosphate buffered saline sample reaction result from the protein reaction result.

O=c1ccc2c(-c3ccccc3S(=O)(=O)O)c3ccc(O)c(O)c3oc-2c1O [Sodium Pyrogallol Red Salt, pyrogallol red, reference compound] was tested, and the “600 nm Absorbance Level, salt with Protein” value was 0.204 and 0.201, the “900 nm Absorbance Background Level, salt with Protein” value was 0.035 and 0.036 and the “600 nm Absorbance Level, salt in Phosphate Buffered Saline (No Protein)” value was 0.198 and 0.196. For the same compound, the “900 nm Absorbance Background Level, salt in Phosphate Buffered Saline (No Protein)” value was 0.034 and 0.035.

O=c1ccc2c(-c3ccccc3S(=O)(=O)O)c3ccc(O)c(O)c3oc-2c1O [Trioctylamine Pyrogallol Red Salt, pyrogallol red] was tested, and the “600 nm Absorbance Level, salt with Protein” value was 0.446 and 0.44, the “900 nm Absorbance Background Level, salt with Protein” value was 0.086 and 0.087 and the “600 nm Absorbance Level, salt in Phosphate Buffered Saline (No Protein)” value was 0.485. For the same compound, the “900 nm Absorbance Background Level, salt in Phosphate Buffered Saline (No Protein)” value was 0.081 and 0.08.

Several values for one entry are separate records, joined by “and”; a condition that tells them apart may be missing. Equal entries are not always repeated. Structures can show the parent of a compound that is named as a salt.
